Measured values reported in PubChem BioAssay AID1487 (National Center for Advancing Translational Sciences (NCATS), 2009).
This is one part of the list. Further columns of the screen follow, without active or inactive calls. The list favours compounds with an active or inconclusive main result. Potencies come from curve fits of mixed quality, noted in brackets.

Experiment: qHTS Assay for Modulators of Lamin A Splicing
Conditions: HeLa LMNA splicing GFP/RFP minigene ratio, 48 h
Outline: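 Read-out is the ratio of GFP to DsRed2 object intensity, acquired by 488 nm laser-scanning cytometry on HeLa lamin A-EGFP minigene reporter cells. Compound incubation 48 hrs at 37 °C in Opti-MEM with 2% FBS; DMSO 0.5% final.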

[1] = measured here: RFP viability control channel
[2] = measured here: GFP splicing reporter channel

Row | Compound | AC50 [1] | AC50 [2]
1 | S=C(NCc1ccco1)Nc1ccc(Cl)cc1Cl | 22.4 µM [rising, single point] | –
2 | CCOC(=O)C1CCCN(S(=O)(=O)c2cc(Br)cc3c2N(C(=O)C2CC2)CC3)C1 (stereo not drawn) | – | 14.1 µM [rising, partial curve]
3 | Cc1ccc(CN2CCN(/N=C\c3cccc([N+](=O)[O-])c3)CC2)cc1 | 35.5 µM [rising, single point] | –
4 | COc1ccc(/C=C/C(=O)c2ccc(NC3=NCCCS3)cc2)cc1OC | 28.2 µM [rising, single point] | –
5 | CCC(C)(C(=O)NC1CCCC1)N(Cc1ccco1)C(=O)Cc1cccs1 (stereo not drawn) | 35.5 µM [rising, single point] | 35.5 µM [rising, single point]
6 | CC(C)C(NC(=O)C1CCCCC1)C(=O)N1CCN(c2ccc(F)cc2)CC1 (stereo not drawn) | 31.6 µM [rising, single point] | –
7 | CCN(Cc1ccccc1)C(=O)c1cc2c(=O)oc3ccc(C)cc3c2s1 | 1.26 µM [rising, partial curve, poor fit] | –
8 | O=C(NCc1cccnc1)c1ccc(CS(=O)(=O)c2ccc(Br)cc2)o1 | 10 µM [rising, partial curve] | –
9 | CC(C)OC(=O)c1cn(-c2ccccc2)nc1-c1ccc2c(c1)OCCO2 | 14.1 µM [rising, single point] | 11.2 µM [rising, partial curve]
10 | CCOc1ccc(NC(C)=O)cc1 | 14.1 µM [rising, partial curve] | –
11 | CCN(CC)S(=O)(=O)c1cccc(C(=O)NC(C)C(c2cccs2)N2CCCC2)c1 (stereo not drawn) | – | 0.02 µM [rising, full curve, poor fit]
12 | CCOc1ccccc1CNC(=O)c1cn(-c2ccc(OC)cc2)c(=O)c2ccccc12 | – | 0.158 µM [rising, full curve, poor fit]
13 | Cc1cc(C(=O)Cn2nnc(-c3ccc(Cl)cc3)n2)c(C)n1CC1CCCO1 (stereo not drawn) | 7.08 µM [rising, full curve] | 2.82 µM [rising, partial curve, poor fit]
14 | CS(=O)(=O)N(Cc1ccc(Cl)cc1)c1ccc(C(=O)N/N=C/c2cc3ccccc3nc2Cl)cc1 | 8.91 µM [rising, partial curve, poor fit] | –
15 | Cc1cccc(NC(=O)CSc2nc(=O)n(Cc3ccco3)c3c2CCC3)c1C | – | 0.0178 µM [rising, full curve, poor fit]
16 | Cc1cc(C)cc(NC(=O)C(=O)NCCCN2CCOCC2)c1 | 0.0398 µM [falling, full curve] | –
17 | O=C(CSc1nc2ccccc2o1)N1CCN(c2ccccc2)CC1 | 31.6 µM [rising, single point] | 5.62 µM [rising, partial curve, poor fit]
18 | O=c1c(N2CCN(c3cccc(Cl)c3)CC2)csc2ccccc12 | 20 µM [falling, single point] | 11.2 µM [falling, partial curve]
19 | COc1cc(/C=C/c2nc3cc(Cl)ccc3c(=O)n2-c2cccc(C(F)(F)F)c2)cc(OC)c1OC | 6.31 µM [rising, partial curve, poor fit] | –
20 | COc1cc2ncnc(Nc3ccc(F)c(Cl)c3)c2cc1OCCCN1CCOCC1 | 0.000794 µM [rising, full curve, poor fit] | 11.2 µM [falling, single point]
21 | Cc1cccc(N2CCN(C(=O)c3ccncc3)CC2)c1C | 22.4 µM [rising, single point] | –
22 | S=c1[nH]nc(-c2ccc3ccccc3n2)n1Cc1ccccc1 | 0.178 µM [rising, full curve, poor fit] | 0.0891 µM [rising, full curve, poor fit]
23 | CCOCCCN(C(=O)Cn1nnc(-c2ccc(OC)c(OC)c2)n1)C(CC)C(=O)NC1CCCC1 (stereo not drawn) | 5.62 µM [falling, single point] | –
24 | Cc1ccc(-n2cc3ccc([N+](=O)[O-])cc3n2)cc1 | 14.1 µM [rising, single point] | –
25 | O=C(c1ccccc1Sc1ccc([N+](=O)[O-])cc1Cl)N1CCOCC1 | 0.00316 µM [falling, full curve, poor fit] | 6.31 µM [falling, partial curve, poor fit]
26 | O=c1cc(C(F)(F)F)[nH]c2c(C(F)(F)F)cccc12 | 11.2 µM [rising, partial curve] | 2.82 µM [rising, partial curve]
27 | Nc1nc(SCC(=O)NCc2ccccc2)n[nH]1 | 5.62 µM [falling, partial curve, poor fit] | 5.62 µM [falling, single point]
28 | O=C1C2=C(CCCC2)C(=O)N1CNc1ccccc1 | 0.0708 µM [falling, full curve, poor fit] | –

Row | Compound | AC50 [1] | AC50 [2]
29 | Cc1nnc(SCCC(=O)Nc2nc(-c3ccccc3)ns2)s1 | 20 µM [rising, single point] | –
30 | CC(=O)Nc1ccc2nc(NC(=O)c3ccc([N+](=O)[O-])s3)sc2c1 | 14.1 µM [falling, partial curve] | –
31 | Cc1ccc(-c2nc(SCC(=O)N3CCc4ccccc43)c3c(=O)n(C)c(=O)n(C)c3n2)cc1 | 8.91 µM [falling, partial curve] | –
32 | CCOC(=O)C1CCC(CN(Cc2c(Cl)cccc2Cl)S(=O)(=O)c2ccc(Cl)cc2)CC1 (stereo not drawn) | 20 µM [rising, single point] | –
33 | CCOC(=O)Cc1csc(NC(=O)c2cc(=O)c3ccccc3o2)n1 | 0.0891 µM [rising, full curve, poor fit] | 0.0398 µM [rising, full curve, poor fit]
34 | COc1c(S(=O)(=O)n2nc(C)cc2C)ccc(Cl)c1Cl | 28.2 µM [rising, single point] | –
35 | CCOC(=O)c1sc(-c2ccccc2)cc1NC(=O)c1ccc(S(=O)(=O)N(CCOC)CCOC)cc1 | 0.447 µM [falling, full curve, poor fit] | 0.631 µM [falling, full curve, poor fit]
36 | O=C1N=C(N2CCCCC2)S/C1=C/C1=Cc2ccccc2OC1 | 0.562 µM [falling, full curve, poor fit] | –
37 | CC(C(=O)OCc1nnc(-c2ccccc2)o1)N1C(=O)c2ccccc2C1=O (stereo not drawn) | 0.158 µM [falling, full curve, poor fit] | –
38 | Cc1ccc(COC(=O)c2nn(C)c(=O)c3ccccc23)cc1 | 5.01 µM [rising, partial curve, poor fit] | –
39 | CCC(C)Oc1ccccc1C1CC(=O)NC2=C1C(=O)CCC2 (stereo not drawn) | 22.4 µM [falling, single point] | 35.5 µM [falling, single point]
40 | COc1ccc(-n2c(=O)c(CCc3ccccc3)nc3cnc(OC)nc32)cc1 | – | 11.2 µM [falling, partial curve, poor fit]
41 | Nc1ncn(C2C[C@H](O)[C@@H](CO)O2)c(=O)n1 (stereo partly drawn) | – | 0.562 µM [falling, partial curve, poor fit]
42 | O=C(Cn1c(-c2cccs2)cc2cc(F)ccc21)NCCCN1CCN(c2ccccc2F)CC1 | 14.1 µM [rising, partial curve] | –
43 | CC(C)c1ccc(CNC(=O)C(=O)NCCCn2ccnc2)cc1 | 1.41 µM [falling, full curve, poor fit] | –
44 | CCc1ccc2[nH]c(=O)c(CN(CCCN3CCOCC3)C(=O)Nc3cccc(Cl)c3)cc2c1 | 12.6 µM [rising, single point] | –
45 | O=C(CSc1nc2c(cnn2-c2ccc(F)cc2)c(=O)[nH]1)N1CCCCCC1 | 0.251 µM [falling, full curve, poor fit] | –
46 | COc1ccc(C(CNC(=O)c2cccc([N+](=O)[O-])c2)N2CCOCC2)cc1 (stereo not drawn) | – | 0.282 µM [rising, full curve, poor fit]
47 | OC(CNC1CCCc2ccccc21)COc1c(Cl)cccc1Cl (stereo not drawn) | 15.8 µM [rising, single point] | –
48 | O=C(Nc1cccc(-c2nc3ccccc3s2)c1)c1cccs1 | 35.5 µM [rising, single point] | 31.6 µM [rising, single point]
49 | Cc1cc(C)c2c(N)c(C(=O)NC3CCCC3)sc2n1 | 5.62 µM [rising, partial curve] | 3.98 µM [rising, partial curve]
50 | CCCCN(CC)C(=O)c1ccccc1Oc1ccccc1 | 12.6 µM [rising, partial curve] | 3.16 µM [rising, partial curve, poor fit]
51 | COc1ccccc1S(=O)(=O)Cc1ccc(C(=O)N2CCN(c3cccc(Cl)c3)CC2)o1 | 15.8 µM [rising, partial curve] | –
52 | CCCc1cc(=O)[nH]c(Nc2ccc(Cl)cc2)n1 | 14.1 µM [rising, partial curve, poor fit] | 12.6 µM [rising, partial curve]
53 | Cc1ccc(OCCCOc2cccc3cccnc23)cc1C | – | 22.4 µM [falling, single point]
54 | Cc1nc(N2CCCC2)c2nnn(Cc3ccccc3Cl)c2n1 | 25.1 µM [rising, single point] | 12.6 µM [rising, partial curve]
55 | Cc1ccc(CNC(=O)Cn2c(=O)ccc3cc(S(=O)(=O)N4CCCC4)ccc32)cc1 | 0.501 µM [falling, full curve, poor fit] | –

4 entries picked at random from those above, as already listed:
Row | Compound | AC50 [1] | AC50 [2]
42 | O=C(Cn1c(-c2cccs2)cc2cc(F)ccc21)NCCCN1CCN(c2ccccc2F)CC1 | 14.1 µM [rising, partial curve] | –
3 | Cc1ccc(CN2CCN(/N=C\c3cccc([N+](=O)[O-])c3)CC2)cc1 | 35.5 µM [rising, single point] | –
19 | COc1cc(/C=C/c2nc3cc(Cl)ccc3c(=O)n2-c2cccc(C(F)(F)F)c2)cc(OC)c1OC | 6.31 µM [rising, partial curve, poor fit] | –
36 | O=C1N=C(N2CCCCC2)S/C1=C/C1=Cc2ccccc2OC1 | 0.562 µM [falling, full curve, poor fit] | –
